# This is one part of the list. Single values are uncertain, as repeats are few or missing.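 Imaging used 1,536-well plates; nuclei positive for cleaved PARP by antibody were divided by total DNA-stained nuclei to yield the apoptosis fraction. Doses for screening kept most cells viable, and cell lines differ markedly in resting and induced cleaved-PARP levels.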
# Columns and labels:
# Test in all cases: cleaved PARP positive nuclei fraction relative to DMSO control; melanoma cells; higher = more apoptosis
# Details in all cases: library dose: low library concentration; 72 h
# [1] = test system: A101D
# [2] = test system: A2058
# [3] = test system: A375
# [4] = test system: C32
# [5] = test system: CBRC008 (line from a melanoma biopsy)
# [6] = test system: CBRC013 (line from a melanoma biopsy)
# [7] = test system: CBRC014 (line from a melanoma biopsy)
# [8] = test system: CBRC016 (line from a melanoma biopsy)
# [9] = test system: CBRC017 (line from a melanoma biopsy)
# [10] = test system: COLO792
# [11] = test system: COLO800
# [12] = test system: COLO829
# [13] = test system: G361
# [14] = test system: IPC-298
# [15] = test system: IST-MEL1
# [16] = test system: LOXIMVI
# [17] = test system: MEL-HO
# [18] = test system: 501Mel
# [19] = test system: LB2518-MEL
Compound,cleaved PARP positive nuclei fraction [1],cleaved PARP positive nuclei fraction [2],cleaved PARP positive nuclei fraction [3],cleaved PARP positive nuclei fraction [4],cleaved PARP positive nuclei fraction [5],cleaved PARP positive nuclei fraction [6],cleaved PARP positive nuclei fraction [7],cleaved PARP positive nuclei fraction [8],cleaved PARP positive nuclei fraction [9],cleaved PARP positive nuclei fraction [10],cleaved PARP positive nuclei fraction [11],cleaved PARP positive nuclei fraction [12],cleaved PARP positive nuclei fraction [13],cleaved PARP positive nuclei fraction [14],cleaved PARP positive nuclei fraction [15],cleaved PARP positive nuclei fraction [16],cleaved PARP positive nuclei fraction [17],cleaved PARP positive nuclei fraction [18],cleaved PARP positive nuclei fraction [19]
"CC(C)C[C@H](NC(=O)[C@H](Cc1ccccc1)NC(=O)c1cnccn1)B(O)O [Bortezomib] + CC1(C)NC(=O)N(c2ccc([N+](=O)[O-])c(C(F)(F)F)c2)C1=O [nilutamide] (first compound 0.001 µM, partner dose 1 µM)",551%,42%,59.9%,127%,2270%,118%,251%,153%,324%,49.3%,110%,164%,897%,54.3%,56.7%,131%,127%,,
"CCCS(=O)(=O)Nc1ccc(F)c(C(=O)c2c[nH]c3ncc(Cl)cc23)c1F + NC(=O)Nc1cc(-c2cccc(F)c2)sc1C(=O)N[C@H]1CCCNC1 [AZD7762] (first compound 0.08 µM, partner dose 0.02 µM)",93.8%,72.2%,879%,168%,24.2%,127%,105%,118%,91.6%,156%,152%,49.4%,91.1%,120%,163%,74.3%,168%,,
"O=C(O)[C@@H]1[O][Sb](=[O])([O][Sb]2(=[O])[O][C@H]([C@H](O)CO)[C@H](O)[C@H](C(=O)O)[O]2)[O][C@H]([C@H](O)CO)[C@@H]1O (some centres not stated) [stibogluconate] + Cn1cncc1[C@@](N)(c1ccc(Cl)cc1)c1ccc2c(c1)c(-c1cccc(Cl)c1)cc(=O)n2C [tipifarnib] (first compound 2 µM, partner dose 0.01 µM)",72.5%,69%,87.3%,137%,115%,107%,86.3%,105%,145%,77.6%,143%,117%,74.2%,49.4%,105%,232%,229%,,
"Cc1cc(Nc2cc(N3CCN(C)CC3)nc(/C=C/c3ccccc3)n2)n[nH]1 + NCC(=O)Nc1ccc(-n2nc(C(F)(F)F)cc2-c2ccc3c(ccc4ccccc43)c2)cc1 [OSU03012] (first compound 0.04 µM, partner dose 1 µM)",79%,67.1%,1140%,89.6%,106%,170%,253%,219%,96.3%,144%,102%,146%,87.8%,302%,152%,197%,70.2%,,
"Nc1nc(F)nc2c1ncn2[C@@H]1O[C@H](CO)[C@@H](O)[C@@H]1O [fludarabine] + c1cc(-c2cnn3cc(-c4ccc(OCCN5CCCCC5)cc4)cnc23)ccn1 [Dorsomorphin] (first compound 0.2 µM, partner dose 0.4 µM)",20.9%,91.3%,,101%,65.4%,,193%,16.7%,78.2%,225%,111%,72.8%,145%,99%,197%,135%,,2790%,50.1%
"CCCS(=O)(=O)Nc1ccc(F)c(C(=O)c2c[nH]c3ncc(Cl)cc23)c1F + Cc1cc(N2CCOCC2)cc2[nH]c(-c3c(NC[C@@H](O)c4cccc(Cl)c4)cc[nH]c3=O)nc12 [BMS536924] (first compound 0.08 µM, partner dose 0.2 µM)",210%,142%,63.5%,450%,242%,67.4%,94.2%,99.6%,128%,81.5%,44.3%,138%,91.9%,101%,25.4%,73.8%,62.9%,,
"Nc1ccn([C@@H]2O[C@H](CO)[C@@H](O)C2(F)F)c(=O)n1 [gemcitabine] + O=C(CCCCCCC(=O)Nc1ccccc1)NO [vorinostat] (first compound 0.0004 µM, partner dose 0.08 µM)",71.9%,135%,72.5%,67.2%,46.7%,70.7%,153%,230%,117%,95.8%,220%,104%,167%,162%,181%,77.5%,86.7%,,
"C=C(c1ccc(C(=O)O)cc1)c1cc2c(cc1C)C(C)(C)CCC2(C)C [Bexarotene] + COc1ccc2c(c1)CCC1C2CCC2(C)C(NCCCCCCN3C(=O)C=CC3=O)CCC12 [U73122] (first compound 2 µM, partner dose 0.4 µM)",26.8%,151%,,167%,172%,,142%,97.9%,223%,146%,105%,136%,89.7%,351%,188%,76.1%,,71%,139%
"CC(C)C[C@H](NC(=O)[C@H](Cc1ccccc1)NC(=O)c1cnccn1)B(O)O [Bortezomib] + COc1cc(N2CCC(N3CCN(C)CC3)CC2)ccc1Nc1ncc(Cl)c(Nc2ccccc2S(=O)(=O)C(C)C)n1 [NVP-TAE684] (first compound 0.001 µM, partner dose 0.08 µM)",166%,206%,,199%,1050%,,364%,190%,185%,227%,138%,110%,273%,77.5%,698%,66.5%,,766%,147%
"CC(C)C[C@H](NC(=O)[C@H](Cc1ccccc1)NC(=O)c1cnccn1)B(O)O [Bortezomib] + COc1ccc2c(c1)CCC1C2CCC2(C)C(NCCCCCCN3C(=O)C=CC3=O)CCC12 [U73122] (first compound 0.001 µM, partner dose 0.4 µM)",155%,184%,,90.2%,863%,,306%,511%,806%,117%,65.5%,122%,1980%,67.7%,130%,41.2%,,203%,811%
"Nc1nc(F)nc2c1ncn2[C@@H]1O[C@H](CO)[C@@H](O)[C@@H]1O [fludarabine] + O=C(O)C(=O)Nc1sc2c(c1C(=O)O)CCNC2 [TCS401] (first compound 0.2 µM, partner dose 1.66667 µM)",23.7%,82.3%,,117%,79.6%,,76.5%,121%,76.4%,88.5%,79.5%,144%,42.2%,123%,87%,53.9%,,694%,41.9%
"CCCS(=O)(=O)Nc1ccc(F)c(C(=O)c2c[nH]c3ncc(Cl)cc23)c1F + O=S(=O)(c1ccccc1)N(CC(F)(F)F)c1ccc(C(O)(C(F)(F)F)C(F)(F)F)cc1 [T0901317] (first compound 0.08 µM, partner dose 1.4 µM)",25.8%,38.4%,,48%,182%,,153%,84.8%,103%,62.2%,142%,82.9%,86.5%,50.2%,98.6%,54.2%,,45.8%,61.5%
"C[C@@H](Oc1cc(-c2cnn(C3CCNCC3)c2)cnc1N)c1c(Cl)ccc(F)c1Cl [Crizotinib] + O=C(Nc1cccc(Cl)c1)Nc1ncc(CCNc2ncnc3ccsc23)s1 [SNS314] (first compound 0.2 µM, partner dose 0.0008 µM)",74.1%,140%,198%,133%,160%,118%,84.1%,66.3%,111%,63.1%,210%,98.8%,117%,281%,53.4%,66.5%,131%,,
"C[C@@H](Oc1cc(-c2cnn(C3CCNCC3)c2)cnc1N)c1c(Cl)ccc(F)c1Cl [Crizotinib] + Oc1nc(-c2ccc(C(F)(F)F)cc2)nc2c1CSCC2 [XAV939] (first compound 0.2 µM, partner dose 2 µM)",17.1%,73.7%,,116%,31.2%,,86.5%,50.9%,105%,62.4%,108%,119%,146%,91.4%,64.3%,119%,,125%,35.2%
"CN1CCN(c2ccc3nc(-c4c(N)c5c(F)cccc5[nH]c4=O)[nH]c3c2)CC1 [Dovitinib] + Oc1cc(-c2nc(-c3ccccc3)[nH]c2-c2ccncc2)ccc1Cl [L779450] (first compound 0.1 µM, partner dose 0.2 µM)",38.1%,33.6%,,169%,34.3%,,107%,44%,88.3%,84.6%,171%,91.8%,89.4%,105%,112%,173%,,175%,100%
"C[C@@H](Oc1cc(-c2cnn(C3CCNCC3)c2)cnc1N)c1c(Cl)ccc(F)c1Cl [Crizotinib] + COc1cc(Nc2ncc(F)c(Nc3ccc4c(n3)NC(=O)C(C)(C)O4)n2)cc(OC)c1OC [Tamatinib] (first compound 0.2 µM, partner dose 0.4 µM)",105%,109%,205%,192%,216%,125%,82.7%,39%,120%,108%,64.4%,91.7%,106%,126%,233%,86.1%,141%,,
"Nc1nc(F)nc2c1ncn2[C@@H]1O[C@H](CO)[C@@H](O)[C@@H]1O [fludarabine] + COC(=O)c1sccc1S(=O)(=O)Nc1ccc(Nc2ccccc2)cc1OC [GSK0660] (first compound 0.2 µM, partner dose 1 µM)",54.1%,57%,,83.1%,82.8%,,92%,92.7%,75.2%,112%,64.1%,114%,166%,135%,34.6%,138%,,545%,66.2%
"CO[C@H]1C[C@@H]2CC[C@@H](C)[C@@](O)(O2)C(=O)C(=O)N2CCCC[C@H]2C(=O)O[C@H]([C@H](C)C[C@@H]2CC[C@@H](OCCO)[C@H](OC)C2)CC(=O)[C@H](C)/C=C(\C)[C@@H](O)[C@@H](OC)C(=O)[C@H](C)C[C@H](C)/C=C/C=C/C=C/1C [everolimus] + OCCn1cc(-c2cnc3nnn(Cc4ccc5ncccc5c4)c3n2)cn1 [PF04217903] (first compound 0.02 µM, partner dose 1 µM)",56.2%,66%,508%,26.8%,387%,65.7%,74.1%,110%,91.5%,233%,77.3%,189%,235%,120%,191%,52.1%,75.9%,,

# Fetched one by one from the entries so far:
Compound,cleaved PARP positive nuclei fraction [1],cleaved PARP positive nuclei fraction [2],cleaved PARP positive nuclei fraction [3],cleaved PARP positive nuclei fraction [4],cleaved PARP positive nuclei fraction [5],cleaved PARP positive nuclei fraction [6],cleaved PARP positive nuclei fraction [7],cleaved PARP positive nuclei fraction [8],cleaved PARP positive nuclei fraction [9],cleaved PARP positive nuclei fraction [10],cleaved PARP positive nuclei fraction [11],cleaved PARP positive nuclei fraction [12],cleaved PARP positive nuclei fraction [13],cleaved PARP positive nuclei fraction [14],cleaved PARP positive nuclei fraction [15],cleaved PARP positive nuclei fraction [16],cleaved PARP positive nuclei fraction [17],cleaved PARP positive nuclei fraction [18],cleaved PARP positive nuclei fraction [19]
"CC(C)C[C@H](NC(=O)[C@H](Cc1ccccc1)NC(=O)c1cnccn1)B(O)O [Bortezomib] + COc1ccc2c(c1)CCC1C2CCC2(C)C(NCCCCCCN3C(=O)C=CC3=O)CCC12 [U73122] (first compound 0.001 µM, partner dose 0.4 µM)",155%,184%,,90.2%,863%,,306%,511%,806%,117%,65.5%,122%,1980%,67.7%,130%,41.2%,,203%,811%
"CCCS(=O)(=O)Nc1ccc(F)c(C(=O)c2c[nH]c3ncc(Cl)cc23)c1F + O=S(=O)(c1ccccc1)N(CC(F)(F)F)c1ccc(C(O)(C(F)(F)F)C(F)(F)F)cc1 [T0901317] (first compound 0.08 µM, partner dose 1.4 µM)",25.8%,38.4%,,48%,182%,,153%,84.8%,103%,62.2%,142%,82.9%,86.5%,50.2%,98.6%,54.2%,,45.8%,61.5%
